Source: the supplement of paper PMC6411743
± gives the standard deviation of the averaged measurements. The entries are a selection whose mix differs from that of the whole data set. Most values lie at the level of the controls, where differences are scatter.

Protein sequences, listed by entry. Tags and fused reporters are not part of them. Lines headed by an entry give the natural chain unless they say otherwise; changes in a name come on top.
UniProt P49903: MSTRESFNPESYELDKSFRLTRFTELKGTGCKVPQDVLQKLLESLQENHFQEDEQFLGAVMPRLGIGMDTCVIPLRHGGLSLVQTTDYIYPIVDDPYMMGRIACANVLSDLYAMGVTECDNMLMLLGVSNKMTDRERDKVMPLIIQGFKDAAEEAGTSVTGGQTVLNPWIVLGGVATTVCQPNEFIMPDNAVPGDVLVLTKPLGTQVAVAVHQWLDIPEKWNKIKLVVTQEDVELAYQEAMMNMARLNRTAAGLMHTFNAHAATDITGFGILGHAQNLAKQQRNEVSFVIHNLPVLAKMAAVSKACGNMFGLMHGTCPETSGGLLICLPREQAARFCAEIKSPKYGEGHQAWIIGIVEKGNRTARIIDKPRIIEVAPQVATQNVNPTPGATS
UniProt P40425: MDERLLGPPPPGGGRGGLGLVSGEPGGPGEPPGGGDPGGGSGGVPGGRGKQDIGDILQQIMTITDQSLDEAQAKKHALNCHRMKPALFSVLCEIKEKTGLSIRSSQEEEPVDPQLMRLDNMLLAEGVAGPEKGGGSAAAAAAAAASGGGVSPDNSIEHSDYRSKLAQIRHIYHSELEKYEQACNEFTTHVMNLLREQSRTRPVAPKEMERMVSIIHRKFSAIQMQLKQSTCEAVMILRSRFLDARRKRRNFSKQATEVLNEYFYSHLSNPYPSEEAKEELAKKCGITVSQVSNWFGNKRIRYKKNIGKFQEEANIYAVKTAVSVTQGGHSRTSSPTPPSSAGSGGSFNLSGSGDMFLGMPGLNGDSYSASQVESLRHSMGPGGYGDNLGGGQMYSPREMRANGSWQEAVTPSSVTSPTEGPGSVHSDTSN
UniProt P54105: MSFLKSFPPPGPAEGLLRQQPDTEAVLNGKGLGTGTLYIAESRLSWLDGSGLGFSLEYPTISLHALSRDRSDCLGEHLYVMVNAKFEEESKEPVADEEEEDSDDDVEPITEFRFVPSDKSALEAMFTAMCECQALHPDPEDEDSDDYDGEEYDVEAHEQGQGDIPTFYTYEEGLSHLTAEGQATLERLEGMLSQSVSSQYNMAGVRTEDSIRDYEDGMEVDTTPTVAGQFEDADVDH
UniProt P42858, whole entry: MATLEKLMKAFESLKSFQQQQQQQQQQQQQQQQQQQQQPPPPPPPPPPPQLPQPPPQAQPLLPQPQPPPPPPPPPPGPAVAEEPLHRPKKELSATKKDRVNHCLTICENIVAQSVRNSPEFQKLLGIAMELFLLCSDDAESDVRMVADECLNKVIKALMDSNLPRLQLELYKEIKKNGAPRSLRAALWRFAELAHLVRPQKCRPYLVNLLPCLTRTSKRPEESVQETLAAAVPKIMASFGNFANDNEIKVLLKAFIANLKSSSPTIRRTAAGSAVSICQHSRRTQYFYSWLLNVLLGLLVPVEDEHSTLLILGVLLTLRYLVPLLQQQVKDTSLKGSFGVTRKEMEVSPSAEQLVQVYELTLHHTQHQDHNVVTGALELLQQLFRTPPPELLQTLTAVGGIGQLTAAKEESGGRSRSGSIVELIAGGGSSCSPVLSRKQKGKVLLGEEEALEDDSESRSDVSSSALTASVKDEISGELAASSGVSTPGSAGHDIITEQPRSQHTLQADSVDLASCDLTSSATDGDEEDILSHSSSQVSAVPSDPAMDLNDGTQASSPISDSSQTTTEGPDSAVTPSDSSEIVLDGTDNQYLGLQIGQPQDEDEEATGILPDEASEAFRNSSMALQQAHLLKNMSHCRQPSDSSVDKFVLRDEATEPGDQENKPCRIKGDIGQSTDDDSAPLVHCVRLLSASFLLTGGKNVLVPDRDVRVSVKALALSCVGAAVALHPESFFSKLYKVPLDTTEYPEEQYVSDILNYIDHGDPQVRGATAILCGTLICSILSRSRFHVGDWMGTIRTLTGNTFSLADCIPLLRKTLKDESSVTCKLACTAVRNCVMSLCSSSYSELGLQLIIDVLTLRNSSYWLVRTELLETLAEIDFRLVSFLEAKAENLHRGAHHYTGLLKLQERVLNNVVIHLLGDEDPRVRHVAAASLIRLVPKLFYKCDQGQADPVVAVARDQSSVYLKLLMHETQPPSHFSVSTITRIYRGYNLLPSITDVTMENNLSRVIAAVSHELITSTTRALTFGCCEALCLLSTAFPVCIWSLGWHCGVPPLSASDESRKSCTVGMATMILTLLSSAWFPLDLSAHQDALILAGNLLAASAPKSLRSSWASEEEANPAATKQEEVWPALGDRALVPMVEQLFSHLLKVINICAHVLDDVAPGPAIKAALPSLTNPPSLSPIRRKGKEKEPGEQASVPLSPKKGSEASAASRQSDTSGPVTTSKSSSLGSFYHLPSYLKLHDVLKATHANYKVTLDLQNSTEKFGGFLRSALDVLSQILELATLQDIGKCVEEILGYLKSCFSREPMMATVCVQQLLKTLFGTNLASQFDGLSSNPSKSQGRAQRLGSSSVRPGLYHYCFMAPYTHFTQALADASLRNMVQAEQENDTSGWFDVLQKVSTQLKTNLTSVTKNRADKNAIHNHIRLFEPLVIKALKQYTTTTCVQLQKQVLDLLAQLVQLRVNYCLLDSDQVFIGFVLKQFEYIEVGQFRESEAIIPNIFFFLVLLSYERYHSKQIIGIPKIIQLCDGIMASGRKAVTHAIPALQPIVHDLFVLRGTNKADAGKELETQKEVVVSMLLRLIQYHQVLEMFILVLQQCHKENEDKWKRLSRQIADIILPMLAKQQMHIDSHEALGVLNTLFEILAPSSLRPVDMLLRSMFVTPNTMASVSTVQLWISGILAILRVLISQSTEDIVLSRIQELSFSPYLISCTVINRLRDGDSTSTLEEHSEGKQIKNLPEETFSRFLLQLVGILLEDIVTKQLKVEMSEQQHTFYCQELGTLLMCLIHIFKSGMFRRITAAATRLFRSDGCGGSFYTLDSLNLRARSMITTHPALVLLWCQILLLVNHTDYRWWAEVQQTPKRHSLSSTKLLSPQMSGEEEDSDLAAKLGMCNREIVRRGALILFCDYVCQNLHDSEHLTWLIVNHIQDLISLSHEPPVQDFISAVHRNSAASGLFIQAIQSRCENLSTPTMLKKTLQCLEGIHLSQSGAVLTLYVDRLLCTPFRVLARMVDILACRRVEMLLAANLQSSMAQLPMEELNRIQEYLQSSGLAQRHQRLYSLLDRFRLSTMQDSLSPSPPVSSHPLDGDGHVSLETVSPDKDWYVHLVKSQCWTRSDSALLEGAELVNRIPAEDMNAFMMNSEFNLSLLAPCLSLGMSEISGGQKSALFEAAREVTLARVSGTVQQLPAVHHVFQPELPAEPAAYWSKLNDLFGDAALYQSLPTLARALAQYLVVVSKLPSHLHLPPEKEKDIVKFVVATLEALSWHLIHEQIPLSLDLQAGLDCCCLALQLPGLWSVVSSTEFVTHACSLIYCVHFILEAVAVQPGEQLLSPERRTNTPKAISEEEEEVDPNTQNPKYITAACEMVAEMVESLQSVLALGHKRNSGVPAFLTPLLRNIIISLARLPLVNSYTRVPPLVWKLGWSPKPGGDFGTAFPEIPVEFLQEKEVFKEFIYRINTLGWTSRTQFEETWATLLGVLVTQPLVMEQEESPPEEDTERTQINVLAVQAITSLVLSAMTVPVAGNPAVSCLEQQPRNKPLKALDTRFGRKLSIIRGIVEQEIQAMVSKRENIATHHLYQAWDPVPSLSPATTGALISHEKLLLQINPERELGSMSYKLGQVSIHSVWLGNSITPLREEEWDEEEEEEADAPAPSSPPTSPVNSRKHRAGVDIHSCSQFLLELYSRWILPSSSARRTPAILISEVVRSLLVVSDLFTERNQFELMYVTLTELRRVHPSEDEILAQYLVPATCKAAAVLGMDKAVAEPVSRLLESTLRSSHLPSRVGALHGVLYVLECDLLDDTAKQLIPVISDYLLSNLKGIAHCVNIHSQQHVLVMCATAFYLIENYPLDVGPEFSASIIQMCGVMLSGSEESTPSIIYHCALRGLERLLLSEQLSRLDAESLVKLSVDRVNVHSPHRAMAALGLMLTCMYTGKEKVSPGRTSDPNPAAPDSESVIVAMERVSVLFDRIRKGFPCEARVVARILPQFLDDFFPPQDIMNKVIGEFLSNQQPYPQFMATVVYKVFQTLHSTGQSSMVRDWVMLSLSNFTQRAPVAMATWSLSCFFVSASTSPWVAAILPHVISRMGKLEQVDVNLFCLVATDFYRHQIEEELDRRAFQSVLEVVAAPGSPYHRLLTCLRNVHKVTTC
UniProt P42336, whole entry: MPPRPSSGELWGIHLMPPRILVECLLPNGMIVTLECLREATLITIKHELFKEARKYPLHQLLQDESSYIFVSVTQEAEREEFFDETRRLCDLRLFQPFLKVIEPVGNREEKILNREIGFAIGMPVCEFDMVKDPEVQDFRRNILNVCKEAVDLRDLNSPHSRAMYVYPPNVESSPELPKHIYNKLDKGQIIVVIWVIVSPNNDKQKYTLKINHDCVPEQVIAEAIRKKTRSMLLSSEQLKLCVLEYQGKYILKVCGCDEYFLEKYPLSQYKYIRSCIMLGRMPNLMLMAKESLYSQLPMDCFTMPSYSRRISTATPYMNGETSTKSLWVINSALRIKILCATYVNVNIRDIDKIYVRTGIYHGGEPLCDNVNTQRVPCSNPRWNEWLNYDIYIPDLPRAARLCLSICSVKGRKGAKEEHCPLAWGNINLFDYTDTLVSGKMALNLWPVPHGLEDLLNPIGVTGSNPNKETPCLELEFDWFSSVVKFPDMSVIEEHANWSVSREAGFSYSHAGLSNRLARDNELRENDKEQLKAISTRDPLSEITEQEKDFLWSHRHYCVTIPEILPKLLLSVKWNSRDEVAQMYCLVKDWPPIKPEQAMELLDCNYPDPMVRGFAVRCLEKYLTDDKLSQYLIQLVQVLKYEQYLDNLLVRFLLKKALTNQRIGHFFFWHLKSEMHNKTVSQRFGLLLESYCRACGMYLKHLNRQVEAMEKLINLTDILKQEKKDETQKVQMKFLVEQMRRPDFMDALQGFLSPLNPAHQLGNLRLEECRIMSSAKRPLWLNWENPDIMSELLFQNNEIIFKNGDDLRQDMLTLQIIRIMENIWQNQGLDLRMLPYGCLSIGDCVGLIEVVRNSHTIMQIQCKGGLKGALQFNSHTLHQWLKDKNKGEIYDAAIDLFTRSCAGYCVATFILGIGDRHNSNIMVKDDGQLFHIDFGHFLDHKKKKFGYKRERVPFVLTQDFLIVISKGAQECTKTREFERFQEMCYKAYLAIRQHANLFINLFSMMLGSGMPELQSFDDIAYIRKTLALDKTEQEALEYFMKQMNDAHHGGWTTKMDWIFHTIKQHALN
UniProt P51178: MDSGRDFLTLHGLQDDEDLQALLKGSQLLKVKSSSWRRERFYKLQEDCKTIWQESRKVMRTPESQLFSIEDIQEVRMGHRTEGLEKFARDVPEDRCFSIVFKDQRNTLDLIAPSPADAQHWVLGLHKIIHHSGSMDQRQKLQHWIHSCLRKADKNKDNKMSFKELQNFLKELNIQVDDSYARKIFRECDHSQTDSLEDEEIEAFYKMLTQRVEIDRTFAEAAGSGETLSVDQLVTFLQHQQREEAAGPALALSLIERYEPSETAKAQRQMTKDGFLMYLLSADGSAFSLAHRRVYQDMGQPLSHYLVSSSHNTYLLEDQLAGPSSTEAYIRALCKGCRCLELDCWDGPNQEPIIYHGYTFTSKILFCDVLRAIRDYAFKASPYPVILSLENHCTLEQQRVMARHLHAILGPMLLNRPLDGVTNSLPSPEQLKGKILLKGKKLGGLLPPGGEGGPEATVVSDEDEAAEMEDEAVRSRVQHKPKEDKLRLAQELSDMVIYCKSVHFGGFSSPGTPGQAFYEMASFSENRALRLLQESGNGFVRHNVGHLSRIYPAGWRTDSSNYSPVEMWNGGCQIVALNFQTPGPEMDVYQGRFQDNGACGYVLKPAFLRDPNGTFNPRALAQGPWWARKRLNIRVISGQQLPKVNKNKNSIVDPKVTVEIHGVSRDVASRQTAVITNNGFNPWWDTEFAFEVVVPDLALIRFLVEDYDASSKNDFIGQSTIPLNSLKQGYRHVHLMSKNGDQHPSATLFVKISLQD
UniProt P51649: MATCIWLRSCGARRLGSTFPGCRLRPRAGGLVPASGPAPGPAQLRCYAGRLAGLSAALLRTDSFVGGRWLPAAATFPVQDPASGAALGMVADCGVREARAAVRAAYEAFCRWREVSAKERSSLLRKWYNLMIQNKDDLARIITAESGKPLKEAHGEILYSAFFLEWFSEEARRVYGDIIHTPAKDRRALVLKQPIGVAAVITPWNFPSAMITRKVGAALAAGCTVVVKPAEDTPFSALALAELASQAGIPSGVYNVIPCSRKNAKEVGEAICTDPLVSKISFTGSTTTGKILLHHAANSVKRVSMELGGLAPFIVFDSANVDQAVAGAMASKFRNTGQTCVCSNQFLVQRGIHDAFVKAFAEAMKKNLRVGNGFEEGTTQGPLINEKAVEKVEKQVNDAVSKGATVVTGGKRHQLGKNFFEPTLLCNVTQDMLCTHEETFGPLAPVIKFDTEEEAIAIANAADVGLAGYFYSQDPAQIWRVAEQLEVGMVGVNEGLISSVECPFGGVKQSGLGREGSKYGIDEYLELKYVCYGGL

Compound: Nc1ncnc2c1ncn2[C@@H]1O[C@H](COP(=O)(O)OP(=O)(O)NP(=O)(O)O)[C@@H](O)[C@H]1O [adenylyl imidodiphosphate]
Experiment: NP40-soluble protein abundance relative to vehicle (solubility fold change) (ratio); higher = more soluble protein in presence of AMP-PNP
Method in brief: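 Each value is a fold change relative to the detergent-processed vehicle, calculated per replicate from vsn-normalised intensities. Jurkat crude lysate received eight concentrations (0.1 to 10 mM) for 10 min at room temperature and 3 min at 37 °C, then was solubilised in 0.8% NP40 with benzonase (60 min, 4 °C). The ultracentrifuged supernatant was TMT-labelled and run by LC-MS/MS in three independent experiments.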

Target	NP40-soluble protein abundance (concentration: 0.1mM)	NP40-soluble protein abundance (concentration: 0.5mM)
PSMB2 (UniProt P49721)	1.06 ± 0.031	1 ± 0.03
UniProt P52306 and related entries	0.998 ± 0.018	1.01 ± 0.048
UniProt P51798 and related entries	1.01 ± 0.023	0.981 ± 0.031
UniProt P53365 and related entries	1.02 ± 0.034	0.9904 ± 0.0062
UniProt P45985	0.976 ± 0.048	1 ± 0.028
UniProt P51790 and related entries	1.01 ± 0.046	1.017 ± 0.0086
RAB28 (UniProt P51157)	1 ± 0.013	1 ± 0.024
RBM5 (UniProt P52756)	1.02 ± 0.03	1.01 ± 0.024
PSMB10 (UniProt P40306)	0.985 ± 0.042	0.968 ± 0.043
UniProt P49116-2|P49116	0.96 ± 0.028	0.964 ± 0.0082
UniProt P46108 and related entries	1.04 ± 0.036	1.05 ± 0.044
UniProt P51797 and related entries	0.991 ± 0.038	0.991 ± 0.041
SEPHS1 (UniProt P49903)	0.984 ± 0.0094	0.979 ± 0.021
CAPZA2 (UniProt P47755)	1 ± 0.012	1.01 ± 0.023
VASP (UniProt P50552)	0.983 ± 0.039	0.976 ± 0.045
UniProt P42684 and related entries	0.9879 ± 0.0059	0.991 ± 0.013
KPNA1 (UniProt P52294)	1.03 ± 0.05	0.99 ± 0.043
RPIA (UniProt P49247)	1.01 ± 0.04	1.02 ± 0.013
MNX1 (UniProt P50219)	1.01 ± 0.026	1.015 ± 0.008
UniProt P48739 and related entries	0.991 ± 0.0095	1.01 ± 0.03
PBX2 (UniProt P40425)	1.01 ± 0.04	1.01 ± 0.024
UniProt P45974 and related entries	0.99379 ± 0.00049	0.9867 ± 0.0091
DAP3 (UniProt P51398)	1.05 ± 0.031	1.03 ± 0.056
UniProt P54687 and related entries	0.999 ± 0.053	0.966 ± 0.042
STT3A (UniProt P46977)	1.018 ± 0.0057	1.02 ± 0.052
NAPA (UniProt P54920)	1.01 ± 0.036	1.02 ± 0.026

Target	NP40-soluble protein abundance (concentration: 0.1mM)	NP40-soluble protein abundance (concentration: 0.5mM)
RFC3 (UniProt P40938)	1.043 ± 0.0069	1.02 ± 0.049
ST13 (UniProt P50502)	0.938 ± 0.018	0.947 ± 0.031
GNPDA1 (UniProt P46926)	1.02 ± 0.038	1.03 ± 0.061
UniProt P55327-2|P55327-4	0.975 ± 0.075	0.986 ± 0.076
UniProt P52739 and related entries	1.01 ± 0.026	0.999 ± 0.029
PRIM2 (UniProt P49643)	1.02 ± 0.018	1.022 ± 0.0098
UniProt P47756-2	0.994 ± 0.02	1.02 ± 0.051
UniProt P54886 and related entries	1.03 ± 0.016	1.02 ± 0.032
GALK1 (UniProt P51570)	1 ± 0.027	0.999 ± 0.02
CCT5 (UniProt P48643)	1.042 ± 0.0096	1.01 ± 0.051
PPM1F (UniProt P49593)	1.05 ± 0.016	1.01 ± 0.022
CRIP1 (UniProt P50238)	0.984 ± 0.03	1.03 ± 0.061
UniProt P53004 and related entries	1.01 ± 0.048	0.987 ± 0.076
UniProt P41227 and related entries	0.986 ± 0.018	1.04 ± 0.064
CTSC (UniProt P53634)	1.01 ± 0.031	1.01 ± 0.062
MAPKAPK2 (UniProt P49137)	1 ± 0.0093	0.9878 ± 0.0095
UniProt P51608-2|P51608 and related entries	0.992 ± 0.023	1.02 ± 0.021
SUB1 (UniProt P53999)	0.956 ± 0.054	0.953 ± 0.14
CDC34 (UniProt P49427)	1.01 ± 0.029	0.991 ± 0.057
UniProt P50548 and related entries	0.984 ± 0.018	0.97495 ± 0.00022
UniProt P52948 and related entries	1.01 ± 0.048	1.02 ± 0.033
MTOR (UniProt P42345)	0.997 ± 0.052	0.988 ± 0.062
UniProt P43403 and related entries	1.04 ± 0.013	1.06 ± 0.025
HSPA2 (UniProt P54652)	1.01 ± 0.022	1.01 ± 0.022
UniProt P52594 and related entries	0.998 ± 0.025	1.01 ± 0.024
STAT5B (UniProt P51692)	0.999 ± 0.016	0.997 ± 0.021

Target	NP40-soluble protein abundance (concentration: 0.1mM)	NP40-soluble protein abundance (concentration: 0.5mM)
METAP1 (UniProt P53582)	1.01 ± 0.029	1.03 ± 0.025
SLC1A4 (UniProt P43007)	0.976 ± 0.018	0.9892 ± 0.0086
UniProt P49005 and related entries	0.987 ± 0.034	0.978 ± 0.018
PTDSS1 (UniProt P48651)	1.01 ± 0.041	1.01 ± 0.048
CRKL (UniProt P46109)	0.993 ± 0.011	1 ± 0.043
UniProt P53990 and related entries	0.9642 ± 0.0052	0.975 ± 0.032
UniProt P52209-2	0.979 ± 0.011	1.01 ± 0.029
UniProt P51809 and related entries	1.03 ± 0.042	1.01 ± 0.017
NUDT2 (UniProt P50583)	0.982 ± 0.053	0.984 ± 0.081
PHKA2 (UniProt P46019)	1.01 ± 0.049	0.982 ± 0.051
IARS (UniProt P41252)	1.07 ± 0.027	1.01 ± 0.1
UniProt P49406 and related entries	1.03 ± 0.07	0.987 ± 0.076
PSMC4 (UniProt P43686)	1.15 ± 0.055	0.944 ± 0.039
UniProt P48960 and related entries	1.03 ± 0.067	1.04 ± 0.071
RPL5 (UniProt P46777)	0.999 ± 0.039	1.02 ± 0.016
UniProt P55210 and related entries	0.981 ± 0.043	0.971 ± 0.04
RASSF2 (UniProt P50749)	0.991 ± 0.033	1.04 ± 0.037
UBA7 (UniProt P41226)	0.996 ± 0.033	0.964 ± 0.031
CAMLG (UniProt P49069)	0.97 ± 0.018	0.992 ± 0.031
NCAPD3 (UniProt P42695)	0.96 ± 0.018	0.9835 ± 0.0069
SMS (UniProt P52788)	0.983 ± 0.015	0.999 ± 0.015
CLNS1A (UniProt P54105)	0.992 ± 0.015	0.979 ± 0.047
HTT (UniProt P42858)	1.03 ± 0.021	0.979 ± 0.029
RPL29 (UniProt P47914)	1 ± 0.011	1.04 ± 0.03
PIK3CA (UniProt P42336)	1.02 ± 0.025	1.01 ± 0.066
MVD (UniProt P53602)	0.984 ± 0.022	0.993 ± 0.041

Target	NP40-soluble protein abundance (concentration: 0.1mM)	NP40-soluble protein abundance (concentration: 0.5mM)
CTCF (UniProt P49711)	1.004 ± 0.0048	1.02 ± 0.032
SSR4 (UniProt P51571)	0.984 ± 0.025	1.016 ± 0.0069
KIF11 (UniProt P52732)	0.983 ± 0.013	0.99 ± 0.028
UniProt P45983-3|P45983-2	1.03 ± 0.047	1.01 ± 0.046
CDKN1B (UniProt P46527)	0.995 ± 0.016	1.02 ± 0.027
NCKAP1L (UniProt P55160)	1.02 ± 0.049	1.01 ± 0.049
UniProt P46100 and related entries	0.963 ± 0.033	0.984 ± 0.044
UniProt P50395 and related entries	0.999 ± 0.037	1.01 ± 0.07
UniProt P48634 and related entries	0.989 ± 0.011	1 ± 0.031
UniProt P51178 and related entries	0.998 ± 0.042	0.984 ± 0.044
UniProt P49754 and related entries	0.995 ± 0.062	0.936 ± 0.079
UniProt P46734 and related entries	1.08 ± 0.087	1.08 ± 0.11
USP8 (UniProt P40818)	0.998 ± 0.019	0.996 ± 0.043
SUCLG1 (UniProt P53597)	0.981 ± 0.035	1.02 ± 0.063
HCCS (UniProt P53701)	0.998 ± 0.024	0.986 ± 0.034
RBM25 (UniProt P49756)	1 ± 0.039	1.03 ± 0.075
ADCY7 (UniProt P51828)	0.983 ± 0.024	0.972 ± 0.015
LMAN1 (UniProt P49257)	0.987 ± 0.039	0.974 ± 0.025
PMS2 (UniProt P54278)	1.04 ± 0.036	1.06 ± 0.067
ACTR1B (UniProt P42025)	0.989 ± 0.017	1.01 ± 0.029
UniProt P51649 and related entries	0.982 ± 0.038	0.969 ± 0.014
YARS (UniProt P54577)	0.985 ± 0.02	1.02 ± 0.046
COPB1 (UniProt P53618)	0.999 ± 0.04	0.968 ± 0.066
CPT1A (UniProt P50416)	0.967 ± 0.03	0.96 ± 0.081
UniProt P52735 and related entries	0.991 ± 0.08	0.969 ± 0.073
NCBP2 (UniProt P52298)	1.01 ± 0.041	1.04 ± 0.046

In another format: entries from further up
LMAN1 (UniProt P49257)
  NP40-soluble protein abundance (concentration: 0.1mM): 0.987 ± 0.039
  NP40-soluble protein abundance (concentration: 0.5mM): 0.974 ± 0.025
PMS2 (UniProt P54278)
  NP40-soluble protein abundance (concentration: 0.1mM): 1.04 ± 0.036
  NP40-soluble protein abundance (concentration: 0.5mM): 1.06 ± 0.067
ACTR1B (UniProt P42025)
  NP40-soluble protein abundance (concentration: 0.1mM): 0.989 ± 0.017
  NP40-soluble protein abundance (concentration: 0.5mM): 1.01 ± 0.029
UniProt P51649 and related entries
  NP40-soluble protein abundance (concentration: 0.1mM): 0.982 ± 0.038
  NP40-soluble protein abundance (concentration: 0.5mM): 0.969 ± 0.014
